The whole screen tested about 400,000 compounds, of which about 5,500 (1.4%) were called active. This list was built around the results that the source calls inconclusive (neither active nor inactive); the mix of calls is not that of the screen. Calls come from the whole dose curve; as a rule, active = well fitted cell-killing curve with a large enough effect; inconclusive = small, poorly fitted or top-dose-only effect, or effect the other way; inactive = flat fitted curve, though single readings scatter. Where the call is inconclusive, the potency comes from a doubtful curve fit.
experiment: qHTS assay for MDR1-selective chemotherapeutics: Primary screen using the parental adenocarcinoma cell KB-3-1; settings: KB-3-1 viability, CellTiter-Glo ATP luminescence, 72 h; activity change, negative = cytotoxic: at 46.1 µM (top of the series); note: nearly all actives have a fitted effect of over 60% in size
In short: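 KB-3-1 cells, DMEM (no phenol red) + 10% FBS; compound by pin transfer, 72 h, 37 °C. Readout: CellTiter-Glo luminescence after 10 min. Data normalized, curve-fitted.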
% is set by controls: 0 for no effect and ±100 for the full control effect; potency is the fitted concentration of half-maximal effect.

Row | Structure (SMILES) | Potency | activity change, negative = cytotoxic
1 | CCn1c(C(=O)N2CCCC(C(=O)NCCc3ccc(C)cc3)C2)cc2sccc21 (configuration not stated) | inconclusive: 25.9 µM [cytotoxic, single point] | 
2 | NC(=S)NNc1ccc(Cl)c(Cl)c1 | inactive | 
3 | COc1ccc(NC(=O)CSc2nc3ccsc3c(=O)n2Cc2ccccn2)c(OC)c1 | inconclusive: 29.1 µM [cytotoxic, single point] | 
4 | CNC(=O)C[C@@H]1C(=O)N(C2CCCCC2)CC1(C)C | inconclusive: 0.0517 µM [rising, full curve] | 
5 | Cc1nc2nc(SCC(=O)c3cccc([N+](=O)[O-])c3)[nH]c2cc1Br | inconclusive: 29.1 µM [cytotoxic, single point] | 
6 | CCCCn1nnnc1C(c1ccc(OC)cc1)N1CCN(C/C=C/c2ccccc2)CC1 (configuration not stated) | inactive | 
7 | CCOc1ccc(NC(=O)C(C)Oc2ccccc2C(=O)Nc2ccc(C)c(Cl)c2)cc1 (configuration not stated) | inconclusive: 29.1 µM [cytotoxic, single point] | 
8 | CCCCN(CC)C(=O)CSc1nc2ccccc2c(=O)n1CC1COc2ccccc2O1 (configuration not stated) | inconclusive: 12.6 µM [cytotoxic, single point] | 
9 | C=C(C)c1nc(Oc2ccccc2)nc(Oc2ccccc2)n1 | inconclusive: 29.1 µM [cytotoxic, single point] | 
10 | O=C(c1ccc(Cl)cc1)N1CCC(O)(CSc2ccc(Cl)cc2)CC1 | active: 0.0007 µM | 
11 | CCC1(c2ccc(Cl)cc2)NC(=S)N(c2ccc(C)cc2)N1 (configuration not stated) | inconclusive: 29.1 µM [cytotoxic, single point] | 
12 | CN(c1ccccc1)S(=O)(=O)c1cccc(NC(=O)Cn2cnc3ccccc3c2=O)c1 | inconclusive: 18.4 µM [cytotoxic, partial curve] | 
13 | CCOC(=O)c1cnc(-n2nc(C)cc2C)nc1NNc1cc(C)nc(-c2ccccc2)n1 | inconclusive: 7.31 µM [cytotoxic, partial curve] | 
14 | Cc1cccc(CSc2ncc(Cl)c(C(=O)Nc3sc4c(c3C#N)CCCC4)n2)c1 | inactive | 
15 | O=C(Nc1ccc2c(c1)OCO2)Nc1ccccc1F | inconclusive: 7.31 µM [cytotoxic, partial curve] | 
16 | O=C(c1ccc2c3n(nc2c1)-c1ccccc1CO3)N1CCOCC1 | active: 7.31 µM | 
17 | Cc1cccc(C)c1OCc1nc2ccccc2c(=O)n1/N=C/c1c[nH]c2ccccc12 | inconclusive: 32.6 µM [cytotoxic, single point] | 
18 | Fc1c(CSC(=S)N2CCOCC2)cccc1CSC(=S)N1CCOCC1 | inconclusive: 7.31 µM [cytotoxic, partial curve] | 
19 | CCOc1ccc(NC(=O)CN(C)C(=O)c2cn(-c3ccc(F)cc3)nc2-c2cccc(OC)c2)cc1OCC | inactive | 
20 | CCC(=O)Nc1cc(C(F)(F)F)ccc1N1CCOCC1 | inconclusive: 13 µM [cytotoxic, partial curve, poor fit] | 
21 | Cc1cc(C)c(C)c(S(=O)(=O)N2CCC(C(=O)Nc3ccccc3N3CCOCC3)CC2)c1C | inconclusive: 13 µM [cytotoxic, partial curve, poor fit] | 
22 | CNc1snc(C)c1C(=O)OC(C)C(=O)c1ccc(F)cc1 (configuration not stated) | inconclusive: 16.4 µM [cytotoxic, partial curve] | 
23 | CCn1ccc2cc(S(=O)(=O)N3CCC(C(=O)NCc4ccc(OC(C)C)cc4)CC3)ccc21 | inactive | 

Row | Structure (SMILES) | Potency | activity change, negative = cytotoxic
24 | CN(C)CCN1CCN(C2CN(Cc3cn(Cc4cccc(C(F)(F)F)c4)nn3)S(=O)(=O)C2)CC1 (configuration not stated) | inactive | 
25 | NC(=S)NN=C1c2cc(Cl)ccc2-c2c1cc(Cl)cc2[N+](=O)[O-] | active: 6.51 µM | 
26 | Cc1nc(N2CCN(S(=O)(=O)c3ccc(Br)cc3)CC2)c2c(C)c(C)sc2n1 | inconclusive: 25.9 µM [cytotoxic, partial curve, poor fit] | 
27 | O=C(Nc1cccnc1)Nc1cc(Cl)cc(Cl)c1 | inconclusive: 29.1 µM [cytotoxic, single point] | 
28 | CC(C)(C)OC(=O)N/N=C/c1cc(N=Nc2ccccc2)ccc1O | inconclusive: 29.1 µM [cytotoxic, single point] | 
29 | CC[n+]1c(C)cc2c(sc3ccccc32)c1C | active: 2.59 µM | 
30 | Nc1nc(N)c2[nH]cnc2n1 | inconclusive: 20.6 µM [cytotoxic, single point] | 
31 | CC1(C)CC[C@]2(C(=O)n3ccnc3)CC[C@]3(C)[C@H](C(=O)C=C4[C@@]5(C)C=C(C#N)C(=O)C(C)(C)[C@@H]5CC[C@]43C)[C@@H]2C1 | inconclusive: 0.731 µM [cytotoxic, full curve, poor fit] | 
32 | Cc1ccc(Sc2ccc(/C=N/O)cc2[N+](=O)[O-])cc1 | inactive | 
33 | CN1CCc2c(OCC(=O)N3CCC(Cc4ccccc4)CC3)cccc2C1=O | active: 18.4 µM | 
34 | COc1cc(/C=N/N2CCN(C3c4ccccc4-c4ccccc43)CC2)ccc1O | inconclusive: 18.4 µM [cytotoxic, single point] | 
35 | CCCCN(CCC#N)c1ccc(/C=C/c2ccnc3ccccc23)cc1 | inconclusive: 29.1 µM [cytotoxic, single point] | 
36 | Cc1cccc(CCN2C(N(C)C)=NC[C@@H]2Cc2ccccc2)c1 | inconclusive: 29.1 µM [cytotoxic, single point] | 
37 | CCOC(=O)c1ccc(NC(=O)CCc2nc(-c3ccc(Cl)cc3)no2)cc1 | inconclusive: 29.1 µM [cytotoxic, single point] | 
38 | Cc1cccc(-n2nc3c(c2NC(=O)C2CC2)CS(=O)(=O)C3)c1C | inactive | 
39 | CCOc1cc(CN2CCCC(CO)(Cc3ccc(F)cc3F)C2)ccc1OC (configuration not stated) | inconclusive: 16.4 µM [cytotoxic, partial curve, poor fit] | 
40 | CCn1nc(C(=O)NNC(=O)c2ccc(OC(F)F)cc2)c2ccccc2c1=O | inconclusive: 4.61 µM [rising, partial curve] | 
41 | COc1cc2[nH]c(C)c(-c3ccccc3)c(=O)c2cc1Cl | inconclusive: 4.61 µM [cytotoxic, full curve] | 
42 | O=c1[nH]c(C2CCN(S(=O)(=O)c3cccc([N+](=O)[O-])c3)CC2)nc2c1nnn2Cc1ccccc1 | inconclusive: 2.06 µM [rising, partial curve, poor fit] | 
43 | CCCCC(=O)NC(=S)Nc1cccc(NC(=O)c2ccccc2)c1 | inconclusive: 29.1 µM [cytotoxic, single point] | 
44 | O=C(Nc1ccccc1N1CCOCC1)C1=NN(c2c(F)c(F)cc(F)c2F)C(=O)CC1 | inconclusive: 23.1 µM [cytotoxic, partial curve, poor fit] | 
45 | Cc1cc2ccccc2c[n+]1C1CCCCC1 | active: 4.61 µM | 
46 | COc1cccc(/C=C(\C#N)c2nc3ccc(C)cc3[nH]2)c1 | inconclusive: 29.1 µM [cytotoxic, single point] | 

Row | Structure (SMILES) | Potency | activity change, negative = cytotoxic
47 | COc1cc(OC)cc(C(=O)NCc2ccc3c(c2)cc(C)n3C)c1 | inconclusive: 29.1 µM [cytotoxic, single point] | 
48 | COc1ccccc1Nc1nc(-c2sc(NC(=O)CC(C)C)nc2C)cs1 | inconclusive: 13 µM [cytotoxic, single point] | 
49 | O=C(NCCN1C(=O)S/C(=C\c2cccc(Cl)c2Cl)C1=O)C1=COCCO1 | active: 20.6 µM | 
50 | O=C(Cn1c(=O)n(-c2ccccc2)c(=O)c2ccc(C(=O)NCc3ccc4c(c3)OCO4)cc21)Nc1ccc(Br)cc1F | inactive | 
51 | NCCCCCCNS(=O)(=O)c1cccc2c(Cl)cccc12 | inconclusive: 32.6 µM [cytotoxic, single point] | 
52 | Cc1ccc(S(=O)(=O)Cc2ccc(C(=O)N3CCN(c4cc(C)ccc4C)CC3)o2)cc1 | inconclusive: 23.1 µM [cytotoxic, partial curve, poor fit] | 
53 | Cc1ccc(OCC(=O)Oc2cccc(C)c2)cc1 | inactive | 
54 | COc1ccc(C(NC(C)=O)c2cc(Cl)c3cccnc3c2O)cc1OC (configuration not stated) | inconclusive: 14.6 µM [cytotoxic, single point] | 
55 | Cc1ccc(C)c(OCCCCN2CCCCC2)c1 |  | inconclusive: -59.7%
56 | CSc1ccc(CN2CCC(C)(Oc3cccc(F)c3)C2)cc1 (configuration not stated) | inactive | 
57 | CCN(CCCNC(=O)c1cc2cc3cc(OC)ccc3nc2s1)c1ccccc1 | inconclusive: 0.58 µM [cytotoxic, partial curve, poor fit] | 
58 | COc1ccc(CC(=O)Nc2nc(-c3ccc(F)c(F)c3)cs2)cc1OC | inconclusive: 8.2 µM [cytotoxic, partial curve, poor fit] | 
59 | CC(C)c1ccc(C(O)P(=O)(OC2CCCCC2)OC2CCCCC2)cc1 (configuration not stated) | inconclusive: 0.58 µM [cytotoxic, full curve, poor fit] | 
60 | COc1ccc(N2CCN(C(=O)c3ccc(Br)cc3)CC2)c([N+](=O)[O-])c1 | inactive | 
61 | CC(=O)c1ccc(-c2ccc([C@H]3[C@H]4C=CC[C@@H](C)[C@@H]4C(=O)N3Cc3ccccc3)c(F)c2)cc1 | inconclusive: 20.6 µM [cytotoxic, single point] | 
62 | Cc1ccc(NC(=O)c2cnn3c2NC(=C2CC2)C=C3C(F)F)cc1C | inconclusive: 29.1 µM [rising, single point] | 
63 | CCOc1cc(C)c(S(=O)(=O)NC2CC(C)(C)NC(C)(C)C2)cc1C | inactive | 
64 | CCOC(=O)c1c(CC(C)C)csc1NC=O | active: 16.4 µM | 
65 | Cc1ccc(NC(=O)c2ccccc2N(C)S(=O)(=O)c2ccccc2)c(C)c1 | inactive | 
66 | CC1(C)Cc2nc3sc4c(N(CCO)CCO)ncnc4c3cc2CO1 | inconclusive: 1.12 µM [rising, full curve, poor fit] | 
67 | COc1ccccc1/C=C/C(=O)NC(=S)NC(C)C | inconclusive: 20.6 µM [cytotoxic, single point] | 

As a working copy, some entries already given:
Row | Structure (SMILES) | Potency | activity change, negative = cytotoxic
50 | O=C(Cn1c(=O)n(-c2ccccc2)c(=O)c2ccc(C(=O)NCc3ccc4c(c3)OCO4)cc21)Nc1ccc(Br)cc1F | inactive | 
51 | NCCCCCCNS(=O)(=O)c1cccc2c(Cl)cccc12 | inconclusive: 32.6 µM [cytotoxic, single point] | 
52 | Cc1ccc(S(=O)(=O)Cc2ccc(C(=O)N3CCN(c4cc(C)ccc4C)CC3)o2)cc1 | inconclusive: 23.1 µM [cytotoxic, partial curve, poor fit] | 
53 | Cc1ccc(OCC(=O)Oc2cccc(C)c2)cc1 | inactive | 
54 | COc1ccc(C(NC(C)=O)c2cc(Cl)c3cccnc3c2O)cc1OC (configuration not stated) | inconclusive: 14.6 µM [cytotoxic, single point] | 
55 | Cc1ccc(C)c(OCCCCN2CCCCC2)c1 |  | inconclusive: -59.7%
56 | CSc1ccc(CN2CCC(C)(Oc3cccc(F)c3)C2)cc1 (configuration not stated) | inactive | 
57 | CCN(CCCNC(=O)c1cc2cc3cc(OC)ccc3nc2s1)c1ccccc1 | inconclusive: 0.58 µM [cytotoxic, partial curve, poor fit] | 
58 | COc1ccc(CC(=O)Nc2nc(-c3ccc(F)c(F)c3)cs2)cc1OC | inconclusive: 8.2 µM [cytotoxic, partial curve, poor fit] | 
59 | CC(C)c1ccc(C(O)P(=O)(OC2CCCCC2)OC2CCCCC2)cc1 (configuration not stated) | inconclusive: 0.58 µM [cytotoxic, full curve, poor fit] | 
60 | COc1ccc(N2CCN(C(=O)c3ccc(Br)cc3)CC2)c([N+](=O)[O-])c1 | inactive | 
61 | CC(=O)c1ccc(-c2ccc([C@H]3[C@H]4C=CC[C@@H](C)[C@@H]4C(=O)N3Cc3ccccc3)c(F)c2)cc1 | inconclusive: 20.6 µM [cytotoxic, single point] | 
62 | Cc1ccc(NC(=O)c2cnn3c2NC(=C2CC2)C=C3C(F)F)cc1C | inconclusive: 29.1 µM [rising, single point] | 
63 | CCOc1cc(C)c(S(=O)(=O)NC2CC(C)(C)NC(C)(C)C2)cc1C | inactive | 
64 | CCOC(=O)c1c(CC(C)C)csc1NC=O | active: 16.4 µM | 
65 | Cc1ccc(NC(=O)c2ccccc2N(C)S(=O)(=O)c2ccccc2)c(C)c1 | inactive | 
